Results as given in PubChem BioAssay AID1347426 (Functional Genomics Laboratory (NCATS/FGL), 2020).
In all, about 31,000 sequences went through this assay and about 1,400 (4.5%) were called active.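 The calls were made as follows: active = median seed-adjusted z-score above 1 or below -1; inactive = the rest.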 The list shows a part of the results.

Test: Novel Modifiers of Survival Motor Neuron (SMN) Protein: Gene Identification via Genome-wide siRNA Screen;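 also: luminescence tracks full-length SMN protein made from the SMN2 reporter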
Settings: HEK293T SMN2-luciferase reporter, siRNA knockdown, 72 h; actives lie on both sides
In short: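 siRNA screen, 10418 genes ×3 siRNAs; 1 pmol/well, lipid reverse transfection into HEK293T SMN2-luc reporter line. 72 h, 37 °C, 5% CO2; ONE-Glo readout. Data: neg-ctrl normalized, log10, MAD; hit = MAD >1.0 or < -1.0.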
For GAUUUAGGCAGACUGCAAATT against NT5C1B, the median seed-adjusted z-score was inactive: 0.0594.
With GGUCUGUGCUCAAAGUCAUTT against SEMA3G the median seed-adjusted z-score was inactive: 0.00615.
With AAACCUUAUCAAAACAAGATT against LECT2 the median seed-adjusted z-score was inactive: 0.0371.
With GCAGAAACCAUGUACAGGATT against RBPJL the median seed-adjusted z-score was inactive: 0.373.
In the case of GGACAACCUCGAAAUCUCATT against GMIP, the median seed-adjusted z-score is reported as inactive: 0.0686.
For CUAUGGAUCUUUAGGAGUATT against HSPA12A, the median seed-adjusted z-score was inactive: 0.0319.
For GCUGCAUCGUAAGACAUUUTT against PCGF6, the median seed-adjusted z-score was inactive: 0.536.
In the case of CCAGAUACAUGAUCACGGATT against ACACB, the median seed-adjusted z-score is reported as inactive: 0.31.
In the case of GGUCAAUAAUGAAAGUGGATT against AVEN, the median seed-adjusted z-score is reported as inactive: 0.184.
With GAUCAAACCUUUGUAGACATT against ZNF354C the median seed-adjusted z-score was inactive: 0.648.
With GGAUAUCAUGAUAUCAUCATT against ADAMTS1 the median seed-adjusted z-score was inactive: 0.173.
For GCAACAUGACGGGACUGGUTT against LRFN4, the median seed-adjusted z-score was inactive: -0.076.
For CAAUGUCUUCGCAAUGUUUTT against MYL9, the median seed-adjusted z-score was inactive: 0.571.
With CCAUUAAGAAUGCUAAUAUTT against ABCB10 the median seed-adjusted z-score was inactive: -0.1.
In the case of CCGAGUAGCUGAAAUUGUUTT against BCL2L14, the median seed-adjusted z-score is reported as inactive: -0.859.
In the case of ACACCUCUCUGAAACCUAUTT against CA1, the median seed-adjusted z-score is reported as inactive: 0.262.
In the case of UGCUCUUCGUGGACCAGAATT against ZBTB17, the median seed-adjusted z-score is reported as inactive: 0.0544.
In the case of GAAGGAGACUAAUGAGCAATT against FGD4, the median seed-adjusted z-score is reported as inactive: -0.0017.
With GGUUGAGGAAAGAGGCAAATT against ZBTB16 the median seed-adjusted z-score was inactive: 0.431.
For GCAUAUUCCUAGACUAUGATT against TRIM39, the median seed-adjusted z-score was inactive: 0.41.
With CAAUGAGGACUUUAAACAATT against HTR1B the median seed-adjusted z-score was inactive: -0.221.
In the case of GAUUGACCGGUUCAGUAAATT against RAB7L1, the median seed-adjusted z-score is reported as inactive: 0.243.
For CAGUACUGCUGACACCCAATT against BAT2, the median seed-adjusted z-score was inactive: 0.0889.
In the case of GGAACAGUCAUGCUGGAUATT against SLC4A7, the median seed-adjusted z-score is reported as inactive: 0.
In the case of GCAAGAGAAUUAAACUGCATT against RAB8A, the median seed-adjusted z-score is reported as inactive: -0.0436.
With GAUGGAGAAUAUUCCGUUUTT against MIF4GD the median seed-adjusted z-score was inactive: 0.373.
In the case of UGAGAUUUCUGGUCAAGGATT against TRIM31, the median seed-adjusted z-score is reported as inactive: -0.167.
In the case of GGCUCGAACUUACACUGAATT against GTF3C2, the median seed-adjusted z-score is reported as inactive: 0.32.
For CCACUGAUAGAUCACUUGATT against AADAC, the median seed-adjusted z-score was inactive: 0.0318.
With CAACCUGCCGGAGUCUAGATT against OTX1 the median seed-adjusted z-score was inactive: -0.475.
In the case of GCACUACAGUUCGUAAGGATT against PPP3CC, the median seed-adjusted z-score is reported as inactive: 0.271.
For GAUCCAAAGGAAUAUGCUATT against GC, the median seed-adjusted z-score was inactive: 0.14.
For ACACCAAGAUGAUAAUUGATT against GPKOW, the median seed-adjusted z-score was inactive: -0.239.
With GAAUAUUGCGAUGCCGAAATT against GPR65 the median seed-adjusted z-score was inactive: -0.766.
With GGACUAUUCAGCAACAAAATT against PARP9 the median seed-adjusted z-score was inactive: -0.526.
For GGACAGUCUUGGAUCAGCATT against PDE6B, the median seed-adjusted z-score was inactive: -0.336.
With CAUAAUCGAUGCUAUUGUATT against PARP15 the median seed-adjusted z-score was inactive: -0.332.
With GCAUUUAUCUGAGCACAGATT against ZNF673 the median seed-adjusted z-score was inactive: 0.419.
For GAACUGUGGUGUCUUGGUATT against DUSP6, the median seed-adjusted z-score was inactive: 0.
In the case of ACUUUUAUGUUAGACAAGATT against METTL6, the median seed-adjusted z-score is reported as inactive: -0.415.
With GCAAUUCUCCGGUUAGAAATT against LSM4 the median seed-adjusted z-score was inactive: -0.679.
For GAAUCGGAAUGUCAGUUAATT against TCEA1, the median seed-adjusted z-score was inactive: 0.
In the case of GGCCCUUGGCCUUACUAUGTT against ACSM2B, the median seed-adjusted z-score is reported as inactive: -0.0401.
With GCCUACUGGUCAUUGAUCATT against GNMT the median seed-adjusted z-score was inactive: 0.0261.
For CAGUCGUUUCAGUUACUUATT against ZNF44, the median seed-adjusted z-score was inactive: 0.349.
With CAAUACUCUCCUAAAAUAATT against TYROBP the median seed-adjusted z-score was inactive: 0.249.
With GGAAACCAGUGGAUAUUAATT against F11 the median seed-adjusted z-score was inactive: -0.0319.
For GCUAUGUUUUGAUGACGAATT against ZNF425, the median seed-adjusted z-score was inactive: 0.0841.
With GGCUAAGGGCAUUACGUAUTT against DDX41 the median seed-adjusted z-score was inactive: -0.611.
In the case of CCUACAACAGUACAAGUUATT against CORIN, the median seed-adjusted z-score is reported as inactive: -0.0274.
With ACAUUUCUCAAAUAUGGAATT against NKX2-2 the median seed-adjusted z-score was inactive: -0.0805.
For GCAGAGAAGUCCCAACUAATT against FLOT1, the median seed-adjusted z-score was inactive: -0.685.
With GAGUCGGAGUCGAAGUAGATT against NKTR the median seed-adjusted z-score was active: -1.1.
In the case of AGAGCAACAUCAACAUUAUTT against TKTL1, the median seed-adjusted z-score is reported as inactive: -0.495.
For GCCUUCUCCCUAUUUGAUATT against CALM1, the median seed-adjusted z-score was inactive: 0.355.
For GCAAACCAGAAGUAACAGATT against BAAT, the median seed-adjusted z-score was inactive: 0.641.
In the case of GGAAUCAGAUUAUUCAGGATT against TYMS, the median seed-adjusted z-score is reported as inactive: -0.6.
With CCAUCGAGAUGCUUCGAGUTT against HAS3 the median seed-adjusted z-score was inactive: -0.179.
In the case of CUGACAGUGUGGUAUUCUATT against PRDM13, the median seed-adjusted z-score is reported as inactive: 0.
For GAUCGUUGCAAAGUUCUUATT against CPSF6, the median seed-adjusted z-score was active: -2.38.
In the case of CCUUUGCACUACUUCGACATT against ST3GAL5, the median seed-adjusted z-score is reported as inactive: 0.11.
For GCAUGCCCAUGAACAAAAATT against B3GNT1, the median seed-adjusted z-score was inactive: 0.0931.
For GGAUCUUGAAUUCAACUAUTT against TLR8, the median seed-adjusted z-score was inactive: 0.
In the case of GCCUUUAAUGGAUCCUCAATT against ZNF681, the median seed-adjusted z-score is reported as inactive: 0.271.
With GGAAAACAAUCUUAAGAAATT against ATOH7 the median seed-adjusted z-score was inactive: 0.135.
In the case of GGACAAGAACGGAAUUUCATT against SCLY, the median seed-adjusted z-score is reported as inactive: 0.00396.
With GAGCUUCAGUUUUACCGAATT against REXO2 the median seed-adjusted z-score was inactive: -0.0419.
In the case of GCAGUAUCAGAAAACGGAATT against ZNF567, the median seed-adjusted z-score is reported as inactive: -0.114.
For AGCUGAAAAUUGAGAACAATT against TBX4, the median seed-adjusted z-score was inactive: 0.968.
For GCACUCGACUUGUACUAAATT against KCTD4, the median seed-adjusted z-score was inactive: 0.649.
With GGACAAGAAGCAAAUGACATT against OLIG2 the median seed-adjusted z-score was inactive: 0.00944.
In the case of CGUCAACUCAUAAUAUGGATT against EIF5A, the median seed-adjusted z-score is reported as inactive: 0.00397.
For GAGACUGCACAACACGAUATT against TMEM11, the median seed-adjusted z-score was inactive: -0.00121.
For GGUGUAAGAGAGCUACUAATT against IFIH1, the median seed-adjusted z-score was inactive: 0.419.
With CAACAGACAAGGCACCUAATT against MYLK2 the median seed-adjusted z-score was inactive: -0.0498.
With GCCUUACGAUUUCAUAGAATT against ME2 the median seed-adjusted z-score was inactive: -0.0557.
With GAAUUUGAGAUUGCACUGATT against ZMYND10 the median seed-adjusted z-score was inactive: 0.255.
With CCUCCUCUGCUUAUCGUAUTT against GLT8D1 the median seed-adjusted z-score was active: 1.22.
With ACCCUAUGCCUACACCUUUTT against APEX1 the median seed-adjusted z-score was inactive: -0.312.
In the case of GCCUCAUACUUUAUUAUCATT against MCM4, the median seed-adjusted z-score is reported as inactive: 0.0057.
For GAAAUACUCUGGUUAGAAATT against PTPRC, the median seed-adjusted z-score was inactive: 0.197.
With CCUUUACUACGUGUGCACATT against POLR2I the median seed-adjusted z-score was active: -3.27.
For GCUCCUCAACAAUACCGCATT against POT1, the median seed-adjusted z-score was inactive: 0.459.
For AGAUGGAGCAAACCGCUUUTT against LYL1, the median seed-adjusted z-score was inactive: -0.118.
In the case of GCCUAUCCGUGGAGUAGAATT against PTPRD, the median seed-adjusted z-score is reported as inactive: 0.425.
With CGUUCGGAAUAACUGAAAUTT against GNG7 the median seed-adjusted z-score was inactive: -0.205.
For CAUUGAUGAUUUCGCUAAATT against SLCO1B1, the median seed-adjusted z-score was inactive: 0.127.
With GGAGUUCAAUCAGUACCUATT against TTL the median seed-adjusted z-score was inactive: -0.174.
For CAUUGAACCACGUACCAUUTT against EHHADH, the median seed-adjusted z-score was inactive: 0.0626.
For CCAACAGUGAGAAGACAAATT against LRRC47, the median seed-adjusted z-score was inactive: 0.00856.
In the case of CAAGAGCUCUGAGCAAGGATT against RAX2, the median seed-adjusted z-score is reported as inactive: 0.345.
For CCAAAUGAGUACGAAGAUATT against TNFAIP6, the median seed-adjusted z-score was inactive: 0.
In the case of CGAUGCUAGUGAUUGCUCUTT against WRN, the median seed-adjusted z-score is reported as inactive: -0.00482.
With GGAUCCAAAUUACAAUCCATT against DERL2 the median seed-adjusted z-score was inactive: -0.27.
For CGGCAAGAGUGUCCAGUAUTT against RNF5, the median seed-adjusted z-score was inactive: -0.0342.
With CAAUGUCCGGAAGCAGUUUTT against ACAD8 the median seed-adjusted z-score was active: 1.06.
With GAGCGAGAUUUGAAGAUCATT against MYH11 the median seed-adjusted z-score was inactive: 0.
For GGAAGGUGAUUGUCGGGAUTT against DPAGT1, the median seed-adjusted z-score was inactive: -0.144.
With CUGACUUGUUUGAUCGAAATT against CSNK1G3 the median seed-adjusted z-score was inactive: 0.
With AAGCAUAAUUUGUACAGCUTT against NMNAT1 the median seed-adjusted z-score was inactive: 0.22.
With GACUCUAUGCUGAUAAUGATT against ADIPOQ the median seed-adjusted z-score was inactive: 0.557.
In the case of AGGGCCUUAUGGUCAAGAATT against PRKAB2, the median seed-adjusted z-score is reported as inactive: 0.17.
For GGAUCGUAAAAAUAGCAAATT against DGKA, the median seed-adjusted z-score was active: -1.36.
In the case of CCUUCAGUCUUACUGAACATT against ZNF418, the median seed-adjusted z-score is reported as inactive: 0.804.
In the case of ACACGAGAGAGAAACCUUUTT against ZNF146, the median seed-adjusted z-score is reported as inactive: 0.23.
For GACGUAUUCUAGUACAGAATT against TDG, the median seed-adjusted z-score was inactive: 0.0549.
For GCAGGGUGCACAUAUCAUUTT against VNN3, the median seed-adjusted z-score was inactive: 0.343.
In the case of AGGCCGUCAUGGAAAUGAUTT against PFDN5, the median seed-adjusted z-score is reported as inactive: 0.562.
